These results are taken from PMC5031922.

Protein sequences, listed by entry. Tags and fused reporters are not part of them.
UniProt Q96KQ7: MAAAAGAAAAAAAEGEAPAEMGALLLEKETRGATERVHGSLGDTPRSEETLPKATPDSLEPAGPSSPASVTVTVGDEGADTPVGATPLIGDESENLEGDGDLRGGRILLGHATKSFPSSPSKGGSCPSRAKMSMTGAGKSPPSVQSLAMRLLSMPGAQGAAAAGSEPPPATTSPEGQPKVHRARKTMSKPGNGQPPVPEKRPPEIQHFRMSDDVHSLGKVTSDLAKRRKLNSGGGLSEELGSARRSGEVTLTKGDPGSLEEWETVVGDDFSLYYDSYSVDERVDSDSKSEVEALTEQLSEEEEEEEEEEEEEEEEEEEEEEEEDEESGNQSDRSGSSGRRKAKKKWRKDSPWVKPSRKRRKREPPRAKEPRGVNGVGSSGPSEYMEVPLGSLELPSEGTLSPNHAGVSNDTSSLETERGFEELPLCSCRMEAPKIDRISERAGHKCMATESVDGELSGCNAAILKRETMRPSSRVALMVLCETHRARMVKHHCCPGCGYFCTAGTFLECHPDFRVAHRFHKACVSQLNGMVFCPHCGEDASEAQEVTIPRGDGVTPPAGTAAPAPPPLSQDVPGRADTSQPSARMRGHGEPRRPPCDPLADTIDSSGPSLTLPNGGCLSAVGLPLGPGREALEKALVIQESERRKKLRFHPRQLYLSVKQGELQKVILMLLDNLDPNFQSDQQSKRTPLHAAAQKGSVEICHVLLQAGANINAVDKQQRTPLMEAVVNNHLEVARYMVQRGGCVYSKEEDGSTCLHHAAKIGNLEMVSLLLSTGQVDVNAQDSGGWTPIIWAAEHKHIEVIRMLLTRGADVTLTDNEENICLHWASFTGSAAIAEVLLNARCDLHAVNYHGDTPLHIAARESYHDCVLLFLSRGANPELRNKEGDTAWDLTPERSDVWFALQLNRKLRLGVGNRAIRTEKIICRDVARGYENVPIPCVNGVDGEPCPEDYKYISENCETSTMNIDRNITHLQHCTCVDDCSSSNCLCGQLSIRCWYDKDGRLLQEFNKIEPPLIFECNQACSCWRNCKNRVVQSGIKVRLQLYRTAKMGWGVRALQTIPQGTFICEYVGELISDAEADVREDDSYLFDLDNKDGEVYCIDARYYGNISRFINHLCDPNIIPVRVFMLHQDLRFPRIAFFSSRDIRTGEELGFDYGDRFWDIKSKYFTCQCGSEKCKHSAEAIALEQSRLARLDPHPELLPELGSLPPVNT
UniProt Q9H9B1: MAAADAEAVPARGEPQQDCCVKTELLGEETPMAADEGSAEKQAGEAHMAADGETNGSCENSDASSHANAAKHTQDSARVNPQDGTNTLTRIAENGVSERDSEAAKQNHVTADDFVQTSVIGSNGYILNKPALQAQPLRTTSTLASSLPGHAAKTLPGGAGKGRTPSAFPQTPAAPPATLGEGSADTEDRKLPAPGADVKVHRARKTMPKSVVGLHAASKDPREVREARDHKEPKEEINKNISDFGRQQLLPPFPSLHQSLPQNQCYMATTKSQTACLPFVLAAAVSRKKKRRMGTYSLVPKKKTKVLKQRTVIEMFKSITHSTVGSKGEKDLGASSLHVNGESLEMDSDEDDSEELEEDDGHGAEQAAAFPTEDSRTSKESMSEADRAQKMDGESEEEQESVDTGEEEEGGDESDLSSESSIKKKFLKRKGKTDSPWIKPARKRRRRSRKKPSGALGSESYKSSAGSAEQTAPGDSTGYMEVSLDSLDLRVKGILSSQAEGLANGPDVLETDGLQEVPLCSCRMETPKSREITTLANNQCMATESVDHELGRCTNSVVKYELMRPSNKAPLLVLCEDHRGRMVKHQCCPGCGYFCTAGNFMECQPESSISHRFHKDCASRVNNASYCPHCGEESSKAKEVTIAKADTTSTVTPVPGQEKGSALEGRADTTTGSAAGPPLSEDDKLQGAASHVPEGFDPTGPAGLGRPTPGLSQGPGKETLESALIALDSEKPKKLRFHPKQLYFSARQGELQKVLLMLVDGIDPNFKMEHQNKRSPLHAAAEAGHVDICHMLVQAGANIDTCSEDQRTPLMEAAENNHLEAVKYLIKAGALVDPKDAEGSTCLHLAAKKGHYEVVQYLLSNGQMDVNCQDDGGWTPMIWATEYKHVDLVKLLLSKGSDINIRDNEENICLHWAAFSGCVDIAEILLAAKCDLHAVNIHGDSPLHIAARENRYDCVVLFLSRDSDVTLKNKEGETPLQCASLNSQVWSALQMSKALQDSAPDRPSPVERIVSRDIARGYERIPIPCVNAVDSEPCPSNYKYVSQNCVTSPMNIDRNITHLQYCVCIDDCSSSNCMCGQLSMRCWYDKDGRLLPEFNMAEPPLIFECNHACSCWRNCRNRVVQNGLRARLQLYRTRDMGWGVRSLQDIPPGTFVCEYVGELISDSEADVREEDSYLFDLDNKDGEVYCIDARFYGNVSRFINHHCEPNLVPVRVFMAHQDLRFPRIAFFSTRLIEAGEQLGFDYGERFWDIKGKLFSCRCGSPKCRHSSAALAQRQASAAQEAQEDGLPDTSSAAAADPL
UniProt O95785: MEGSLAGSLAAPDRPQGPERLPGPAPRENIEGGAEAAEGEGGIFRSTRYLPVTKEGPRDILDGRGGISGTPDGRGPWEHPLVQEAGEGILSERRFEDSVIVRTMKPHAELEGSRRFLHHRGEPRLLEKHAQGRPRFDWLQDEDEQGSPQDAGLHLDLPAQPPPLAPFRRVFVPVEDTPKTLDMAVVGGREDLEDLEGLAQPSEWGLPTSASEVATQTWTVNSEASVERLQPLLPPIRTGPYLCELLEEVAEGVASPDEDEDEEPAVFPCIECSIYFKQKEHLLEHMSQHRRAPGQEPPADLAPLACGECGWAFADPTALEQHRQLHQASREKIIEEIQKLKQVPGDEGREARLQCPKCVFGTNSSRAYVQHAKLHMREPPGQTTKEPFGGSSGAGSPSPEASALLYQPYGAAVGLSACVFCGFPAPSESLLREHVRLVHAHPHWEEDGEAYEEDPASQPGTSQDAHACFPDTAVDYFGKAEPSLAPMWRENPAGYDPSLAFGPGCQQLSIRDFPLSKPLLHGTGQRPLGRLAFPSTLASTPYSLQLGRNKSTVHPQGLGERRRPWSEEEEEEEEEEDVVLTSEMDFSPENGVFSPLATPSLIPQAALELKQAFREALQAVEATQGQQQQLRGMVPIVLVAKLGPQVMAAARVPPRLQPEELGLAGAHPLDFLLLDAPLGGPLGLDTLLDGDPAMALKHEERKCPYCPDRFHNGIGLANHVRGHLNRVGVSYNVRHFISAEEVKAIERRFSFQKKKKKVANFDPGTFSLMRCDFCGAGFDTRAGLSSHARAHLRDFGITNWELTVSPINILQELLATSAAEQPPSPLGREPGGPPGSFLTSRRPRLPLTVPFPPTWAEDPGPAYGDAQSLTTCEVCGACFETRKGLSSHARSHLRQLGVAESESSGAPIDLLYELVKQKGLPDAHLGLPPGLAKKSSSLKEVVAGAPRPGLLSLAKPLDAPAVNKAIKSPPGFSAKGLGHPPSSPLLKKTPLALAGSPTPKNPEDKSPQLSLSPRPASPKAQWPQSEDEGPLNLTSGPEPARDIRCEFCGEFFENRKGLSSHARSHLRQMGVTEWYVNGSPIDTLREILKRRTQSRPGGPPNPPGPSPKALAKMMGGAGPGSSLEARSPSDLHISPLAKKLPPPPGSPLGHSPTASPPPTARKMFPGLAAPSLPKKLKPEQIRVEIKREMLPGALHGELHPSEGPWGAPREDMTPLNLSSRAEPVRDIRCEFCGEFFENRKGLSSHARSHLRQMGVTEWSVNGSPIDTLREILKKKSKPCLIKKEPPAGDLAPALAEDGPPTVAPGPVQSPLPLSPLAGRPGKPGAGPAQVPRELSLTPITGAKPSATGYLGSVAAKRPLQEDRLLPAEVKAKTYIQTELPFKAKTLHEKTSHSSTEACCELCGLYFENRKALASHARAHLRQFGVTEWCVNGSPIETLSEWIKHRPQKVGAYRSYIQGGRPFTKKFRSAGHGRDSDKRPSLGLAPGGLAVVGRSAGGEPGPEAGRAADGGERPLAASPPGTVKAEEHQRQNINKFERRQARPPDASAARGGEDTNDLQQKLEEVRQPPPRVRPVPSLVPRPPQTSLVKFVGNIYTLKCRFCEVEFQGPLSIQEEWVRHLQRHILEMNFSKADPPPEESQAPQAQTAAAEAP

No constants are given. Whether binding was seen depends on the method and setting. In cells and extracts the contact can be indirect. Here binding means that the protein was enriched with, or labelled near, the bait; the list need not be complete. A no says only that the protein was not detected with the bait. Sequences can lack the tags named with a protein.

This experiment concerns the target T1, GFP-tagged full-length ZNF644 H1283A (human) (UniProt Q9H582).
T1 sequence: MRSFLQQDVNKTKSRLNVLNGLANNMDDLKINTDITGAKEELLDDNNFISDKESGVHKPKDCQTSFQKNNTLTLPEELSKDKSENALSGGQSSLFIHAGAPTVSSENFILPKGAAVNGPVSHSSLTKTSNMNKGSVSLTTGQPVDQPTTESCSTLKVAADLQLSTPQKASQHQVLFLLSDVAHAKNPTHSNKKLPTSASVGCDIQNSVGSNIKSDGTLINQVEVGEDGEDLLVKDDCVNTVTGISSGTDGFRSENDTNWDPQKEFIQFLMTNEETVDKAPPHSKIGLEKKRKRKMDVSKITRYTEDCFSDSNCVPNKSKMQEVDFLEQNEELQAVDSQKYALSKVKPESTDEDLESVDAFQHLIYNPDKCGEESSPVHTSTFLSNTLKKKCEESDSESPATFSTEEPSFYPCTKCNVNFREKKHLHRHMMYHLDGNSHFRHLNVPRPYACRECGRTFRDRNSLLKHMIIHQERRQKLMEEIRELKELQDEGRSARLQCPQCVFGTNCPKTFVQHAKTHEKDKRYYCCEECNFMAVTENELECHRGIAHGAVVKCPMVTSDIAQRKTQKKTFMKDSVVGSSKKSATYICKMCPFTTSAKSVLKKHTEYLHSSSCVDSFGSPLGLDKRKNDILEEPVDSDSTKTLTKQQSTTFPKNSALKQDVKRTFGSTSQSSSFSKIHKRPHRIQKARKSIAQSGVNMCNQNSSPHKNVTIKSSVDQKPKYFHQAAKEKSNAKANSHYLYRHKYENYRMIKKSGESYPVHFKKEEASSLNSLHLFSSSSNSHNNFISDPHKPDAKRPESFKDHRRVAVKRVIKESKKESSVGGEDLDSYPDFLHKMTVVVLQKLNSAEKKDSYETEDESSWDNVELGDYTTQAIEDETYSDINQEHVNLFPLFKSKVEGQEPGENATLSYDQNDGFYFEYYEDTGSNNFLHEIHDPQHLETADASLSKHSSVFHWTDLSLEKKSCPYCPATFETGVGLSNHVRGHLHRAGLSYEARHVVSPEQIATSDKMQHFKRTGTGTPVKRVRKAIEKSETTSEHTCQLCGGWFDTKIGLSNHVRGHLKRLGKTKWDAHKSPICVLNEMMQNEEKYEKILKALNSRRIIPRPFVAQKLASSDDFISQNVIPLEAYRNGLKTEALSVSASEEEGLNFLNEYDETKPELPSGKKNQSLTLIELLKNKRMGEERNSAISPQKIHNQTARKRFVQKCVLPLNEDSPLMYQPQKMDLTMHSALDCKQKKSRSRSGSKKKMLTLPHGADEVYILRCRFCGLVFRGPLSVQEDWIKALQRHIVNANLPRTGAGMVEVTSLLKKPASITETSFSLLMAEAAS
Nature of the experiment: affinity purification with mass spectrometry; GFP-tagged bait in Flp-In T-Rex HEK293, induced with 1 ug/ml doxycycline for 24 hr; purified with rabbit anti-GFP antibody.
For “G9a (endogenous) (from UniProt Q96KQ7 1-1210) (enzyme)”, the binding entry is given as “no binding”.
To “GLP (from UniProt Q9H9B1 1-1298) (enzyme)” belongs “no binding”; to WIZ (from UniProt O95785 1-1651), “no binding”.
